{
  "source": "paper PMC5996148",
  "experiment_in_all_cases": "protein microarray (ProtoArray v5.0), streptavidin-Alexa Fluor 647",
  "details_in_all_cases": "3'-biotin; 20 mM Tris (pH 7.5), 5 mM MgCl2, 100 mM KCl, 0.1% Tween-20, A/T-rich and random oligonucleotide blockers; temperature not stated; high values mean tight binding",
  "key": {"[1]": {"tested_on": "ATP-dependent RNA helicase A (human)"}, "[2]": {"tested_on": "ATP1B3 (human)"}, "[3]": {"molecular_target": "T1, ATP5C1 (UniProt P36542)", "T1 sequence": "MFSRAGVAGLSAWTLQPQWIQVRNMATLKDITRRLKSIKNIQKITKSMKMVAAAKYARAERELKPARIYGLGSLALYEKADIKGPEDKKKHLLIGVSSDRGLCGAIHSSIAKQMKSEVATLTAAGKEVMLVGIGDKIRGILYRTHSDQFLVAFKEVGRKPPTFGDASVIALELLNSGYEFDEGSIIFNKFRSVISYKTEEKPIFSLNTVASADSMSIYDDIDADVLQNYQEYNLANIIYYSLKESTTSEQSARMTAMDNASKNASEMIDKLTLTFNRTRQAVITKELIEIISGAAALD"}, "[4]": {"tested_on": "ATP5E (human)"}, "[5]": {"tested_on": "ATP5H (human)"}, "[6]": {"tested_on": "ATP5L (human)"}, "[7]": {"tested_on": "ATP6AP2 (human)"}, "[8]": {"tested_on": "ATP6V1B1 (human)"}, "[9]": {"tested_on": "ATP6V1E1 (human)"}, "[10]": {"tested_on": "ATP6V1E2 (human)"}},
  "note": "The other results are listed elsewhere or left out. For some of these results: Construct or isoform of the protein are uncertain.",
  "data": [
    {"sequence": "GGGAGGCTGAGGCAGG [G4-1 biotinylated (PQS2)]", "values": [
      {"measurement": "binding signal", "setting": "[1]", "value": -0.293, "unit": "z-score"},
      {"measurement": "binding signal", "setting": "[2]", "value": -0.33, "unit": "z-score"},
      {"measurement": "binding signal", "setting": "[3]", "value": -0.335, "unit": "z-score"},
      {"measurement": "binding signal", "setting": "[4]", "value": -0.307, "unit": "z-score"},
      {"measurement": "binding signal", "setting": "[5]", "value": -0.307, "unit": "z-score"},
      {"measurement": "binding signal", "setting": "[6]", "value": -0.256, "unit": "z-score"},
      {"measurement": "binding signal", "setting": "[7]", "value": -0.291, "unit": "z-score"},
      {"measurement": "binding signal", "setting": "[8]", "value": -0.345, "unit": "z-score"},
      {"measurement": "binding signal", "setting": "[9]", "value": -0.26, "unit": "z-score"},
      {"measurement": "binding signal", "setting": "[10]", "value": -0.304, "unit": "z-score"}
    ]}
  ]
}
